Measured values taken from patent EP0339193A1 (FARMITALIA CARLO ERBA S.r.l., priority 1988, dated 1989).
HELM strings list residues between dots; [ac] is acetyl, [am] amide, other brackets name non-standard units. * marks the point of attachment. Cbz = O=C(OCc1ccccc1)*; Boc = CC(C)(C)OC(=O)*; OBn = c1ccc(CO*)cc1

Experiment: general procedure: solution-phase peptide synthesis; EEC / NMM (mixed anhydride)
Conditions: HCl
[1] = coupling step, trifluoroacetates when Boc-deblocking with CF3COOH
[2] = late stage modification step, trifluoroacetates when Boc-deblocking with CF3COOH

Row | Substance | step yield [1] | step yield [2] | step yield (late stage modification step)
1 | Boc-TQWAVG-OH | 84% | 75% | 
2 | PEPTIDE1{T.Q.W.A.V.G.[dF].L.M.[am]}$$$$V2.0 |  |  | 84%
3 | Cbz-QWAVG-OBn | 81% |  | 
4 | HCl.H-Trp-Ala-Val-Gly-OBzl |  | 98% | 
5 | Boc-TQWAVG-OBn | 78% |  | 
6 | Boc-QWAVG-OBn | 83% |  | 
7 | PEPTIDE1{T.Q.W.A.V.G.L.M.[am]}$$$$V2.0 |  |  | 58%
8 | PEPTIDE1{[Boc].T.Q.W.A.V.G.L.M.[am]}$$$$V2.0 | 66% |  | 
9 | HCl.H-Gln-Trp-Ala-Val-Gly-OBzl |  | 93% | 
10 | Boc-WAVG-OBn | 78% |  | 
11 | PEPTIDE1{[Boc].T.Q.W.A.V.G.[dF].L.M.[am]}$$$$V2.0 | 92% |  | 
